# Reference: the supplement of paper PMC8728848
# The list shows a part of the results.
# B1: GS13599A-bth-520-23-520 (Bacteroides thetaiotaomicron) (protein)
# chain: SEDTMDRINKDHDHTTSVASRFILADVITSTAFSNASGDINTYASSYIEYEVGVDNQLYYAEVRENEPSSSSTFNNSWNGIYSSLKNARIIIDQCGEGGRDHGNDVTRGMAEVMAAYNCALIADFFGDAPCSQAALVDEKGSPVYMTPKMDTQQEIYTQIISYLDDAIANLQKEDLADVTEQDFLYAGDADKWLKFAYGLKARYTMRLINRSSNKSADYEKVLDYVSKSFTSADDQAAFDIYDSNNINPFYGFYNSRAGFGASTSLGTKLLAYNDPRANRAFFTPIVDKKRSQVAANDPSLVPAPNGSPDQSTSKYGISAFVYAKTAPTLLMSYHELMFLKAEALCRLNRDAEDALKEAVVAGLLNAENSISIAIKELGSGLNTNSSEVITETSAGKYFDDVVKAKYAANPLQETMIQKYLAMWGASGEATETYNDFRRMKGLNENFITLTNPNNSSKFPLRYPYGNSDTAANPEVKAAYGNGDYVYSEPVWWAGGSR
# What was measured:
# Experiment in all cases: glycan array binding signal (z-score within array); higher = stronger binding
# Settings in all cases: glycan notation: IUPAC condensed, linker removed
# [1] = biological target: GlcNAc(b1-3)Gal(b1-4)GlcNAc(b1-3)Gal(b1-4)GlcNAc(b1-3)GalNAc
# Outline: (§1)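 Columns mapping to the same glycan were averaged after glycan names were converted to IUPAC-condensed notation. The data come from 3228 arrays in the Consortium for Functional Glycomics database, limited to those with an available protein sequence. Binding is reported as a within-array Z-score averaged across arrays of one protein sequence and across linkers.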
# [2] = biological target: GlcNAc(b1-3)Gal(b1-4)GlcNAc(b1-3)GalNAc
# Outline: as §1
# [3] = biological target: GlcNAc(b1-3)Gal(b1-4)GlcNAc(b1-3)[GlcNAc(b1-3)Gal(b1-4)GlcNAc(b1-3)]GalNAc
# Outline: as §1
# [4] = biological target: GlcNAc(b1-3)Gal(b1-4)GlcNAc(b1-6)[Gal(b1-3)]GalNAc
# Outline: as §1
# [5] = biological target: GlcNAc(b1-3)Gal(b1-4)GlcNAc(b1-6)[GlcNAc(b1-3)Gal(b1-3)]GalNAc
# Outline: as §1
# [6] = biological target: GlcNAc(b1-3)Gal(b1-4)GlcNAc(b1-6)[GlcNAc(b1-3)]Gal(b1-4)GlcNAc
# Outline: as §1
# GlcNAc(b1-3)GalNAc = biological target: GlcNAc(b1-3)GalNAc
# Outline: as §1
# GlcNAc(b1-3)Man = biological target: GlcNAc(b1-3)Man
# Outline: as §1
# [7] = biological target: GlcNAc(b1-3)[GlcNAc(b1-4)][GlcNAc(b1-6)]GlcNAc
# Outline: as §1
# [8] = biological target: GlcNAc(b1-3)[GlcNAc(b1-6)]Gal(b1-4)GlcNAc
# Outline: as §1
# [9] = biological target: GlcNAc(b1-3)[GlcNAc(b1-6)]GalNAc
# Outline: as §1
# [10] = biological target: GlcNAc(b1-4)Gal(b1-4)GlcNAc
# Outline: as §1
# GlcNAc(b1-4)GlcNAc = biological target: GlcNAc(b1-4)GlcNAc
# Outline: as §1
# [11] = biological target: GlcNAc(b1-4)GlcNAc(b1-4)GlcNAc
# Outline: as §1
# [12] = biological target: GlcNAc(b1-4)GlcNAc(b1-4)GlcNAc(b1-4)GlcNAc(b1-4)GlcNAc
# Outline: as §1
# [13] = biological target: GlcNAc(b1-4)GlcNAc(b1-4)GlcNAc(b1-4)GlcNAc(b1-4)GlcNAc(b1-4)GlcNAc
# Outline: as §1
# [14] = biological target: GlcNAc(b1-4)[GlcNAc(b1-6)]GalNAc
# Outline: as §1
# [15] = biological target: GlcNAc(b1-6)Gal(b1-4)GlcNAc
# Outline: as §1
# GlcNAc(b1-6)GalNAc = biological target: GlcNAc(b1-6)GalNAc
# Outline: as §1
# [16] = biological target: GlcNAc6S(b1-3)Gal(b1-4)GlcNAc
# Outline: as §1
# Kdn(a2-3)Gal(b1-3)GalNAc = biological target: Kdn(a2-3)Gal(b1-3)GalNAc
# Outline: as §1
# Kdn(a2-3)Gal(b1-3)GlcNAc = biological target: Kdn(a2-3)Gal(b1-3)GlcNAc
# Outline: as §1
# Kdn(a2-3)Gal(b1-4)Glc = biological target: Kdn(a2-3)Gal(b1-4)Glc
# Outline: as §1
# Kdn(a2-3)Gal(b1-4)GlcNAc = biological target: Kdn(a2-3)Gal(b1-4)GlcNAc
# Outline: as §1
# [17] = biological target: Kdn(a2-3)Gal(b1-4)[Fuc(a1-3)]GlcNAc
# Outline: as §1
# Kdn(a2-6)Gal(b1-4)GlcNAc = biological target: Kdn(a2-6)Gal(b1-4)GlcNAc
# Outline: as §1
# [18] = biological target: Man(a1-2)Man(a1-2)Man(a1-3)Man
# Outline: as §1
# [19] = biological target: Man(a1-2)Man(a1-2)Man(a1-6)[Man(a1-3)]Man
# Outline: as §1
# Man(a1-2)Man(a1-3)Man = biological target: Man(a1-2)Man(a1-3)Man
# Outline: as §1
# [20] = biological target: Man(a1-2)Man(a1-3)[Man(a1-2)Man(a1-6)]Man
# Outline: as §1
# [21] = biological target: Man(a1-2)Man(a1-3)[Man(a1-2)Man(a1-6)]Man(a1-6)[Man(a1-2)Man(a1-2)Man(a1-3)]Man
# Outline: as §1
# [22] = biological target: Man(a1-2)Man(a1-3)[Man(a1-2)Man(a1-6)]Man(a1-6)[Man(a1-2)Man(a1-2)Man(a1-3)]Man(b1-4)GlcNAc(b1-4)GlcNAc
# Outline: as §1
# [23] = biological target: Man(a1-2)Man(a1-3)[Man(a1-6)]Man(a1-6)[Man(a1-2)Man(a1-3)]Man(b1-4)GlcNAc(b1-4)GlcNAc
# Outline: as §1
# [24] = biological target: Man(a1-2)Man(a1-6)[Man(a1-3)]Man(a1-6)[Man(a1-2)Man(a1-2)Man(a1-3)]Man
# Outline: as §1
# [25] = biological target: Man(a1-2)Man(a1-6)[Man(a1-3)]Man(a1-6)[Man(a1-2)Man(a1-2)Man(a1-3)]Man(b1-4)GlcNAc(b1-4)GlcNAc
# Outline: as §1
# Man(a1-3)[Man(a1-6)]Man = biological target: Man(a1-3)[Man(a1-6)]Man
# Outline: as §1
# [26] = biological target: Man(a1-3)[Man(a1-6)]Man(a1-6)[Man(a1-2)Man(a1-3)]Man(b1-4)GlcNAc(b1-4)GlcNAc
# Outline: as §1
binder,measurement,setting,value
B1,glycan array binding signal (z-score),[1],-0.242
same,glycan array binding signal (z-score),[2],-0.319
same,glycan array binding signal (z-score),[3],-0.324
same,glycan array binding signal (z-score),[4],-0.543
same,glycan array binding signal (z-score),[5],0.056
same,glycan array binding signal (z-score),[6],0.736
same,glycan array binding signal (z-score),GlcNAc(b1-3)GalNAc,-0.348
same,glycan array binding signal (z-score),GlcNAc(b1-3)Man,0.755
same,glycan array binding signal (z-score),[7],-1.11
same,glycan array binding signal (z-score),[8],0.291
same,glycan array binding signal (z-score),[9],-0.081
same,glycan array binding signal (z-score),[10],-0.441
same,glycan array binding signal (z-score),GlcNAc(b1-4)GlcNAc,0.134
same,glycan array binding signal (z-score),[11],-0.942
same,glycan array binding signal (z-score),[12],-1.21
same,glycan array binding signal (z-score),[13],-0.528
same,glycan array binding signal (z-score),[14],-0.35
same,glycan array binding signal (z-score),[15],0.345
same,glycan array binding signal (z-score),GlcNAc(b1-6)GalNAc,-0.798
same,glycan array binding signal (z-score),[16],-0.546
same,glycan array binding signal (z-score),Kdn(a2-3)Gal(b1-3)GalNAc,1.78
same,glycan array binding signal (z-score),Kdn(a2-3)Gal(b1-3)GlcNAc,1.02
same,glycan array binding signal (z-score),Kdn(a2-3)Gal(b1-4)Glc,-0.559
same,glycan array binding signal (z-score),Kdn(a2-3)Gal(b1-4)GlcNAc,0.096
same,glycan array binding signal (z-score),[17],0.574
same,glycan array binding signal (z-score),Kdn(a2-6)Gal(b1-4)GlcNAc,-0.019
same,glycan array binding signal (z-score),[18],0.245
same,glycan array binding signal (z-score),[19],-0.488
same,glycan array binding signal (z-score),Man(a1-2)Man(a1-3)Man,-0.492
same,glycan array binding signal (z-score),[20],-1.45
same,glycan array binding signal (z-score),[21],-0.528
same,glycan array binding signal (z-score),[22],-1.33
same,glycan array binding signal (z-score),[23],-1.2
same,glycan array binding signal (z-score),[24],-0.654
same,glycan array binding signal (z-score),[25],-0.748
same,glycan array binding signal (z-score),Man(a1-3)[Man(a1-6)]Man,0.71
same,glycan array binding signal (z-score),[26],1.29

# A run of entries of the results above, as a working copy:
binder,measurement,setting,value
B1,glycan array binding signal (z-score),Kdn(a2-3)Gal(b1-3)GalNAc,1.78
same,glycan array binding signal (z-score),Kdn(a2-3)Gal(b1-3)GlcNAc,1.02
